Laboratory results published in publication PMC9266683.
Results are given in words; binding and its absence hold for the method and conditions named. Some entries that bind do so weakly or less than the wild type. Sequences can lack the tags named with a protein.

Sequences of proteins named here, by UniProt entry; tags and fusion partners are left off.
UniProt O04539: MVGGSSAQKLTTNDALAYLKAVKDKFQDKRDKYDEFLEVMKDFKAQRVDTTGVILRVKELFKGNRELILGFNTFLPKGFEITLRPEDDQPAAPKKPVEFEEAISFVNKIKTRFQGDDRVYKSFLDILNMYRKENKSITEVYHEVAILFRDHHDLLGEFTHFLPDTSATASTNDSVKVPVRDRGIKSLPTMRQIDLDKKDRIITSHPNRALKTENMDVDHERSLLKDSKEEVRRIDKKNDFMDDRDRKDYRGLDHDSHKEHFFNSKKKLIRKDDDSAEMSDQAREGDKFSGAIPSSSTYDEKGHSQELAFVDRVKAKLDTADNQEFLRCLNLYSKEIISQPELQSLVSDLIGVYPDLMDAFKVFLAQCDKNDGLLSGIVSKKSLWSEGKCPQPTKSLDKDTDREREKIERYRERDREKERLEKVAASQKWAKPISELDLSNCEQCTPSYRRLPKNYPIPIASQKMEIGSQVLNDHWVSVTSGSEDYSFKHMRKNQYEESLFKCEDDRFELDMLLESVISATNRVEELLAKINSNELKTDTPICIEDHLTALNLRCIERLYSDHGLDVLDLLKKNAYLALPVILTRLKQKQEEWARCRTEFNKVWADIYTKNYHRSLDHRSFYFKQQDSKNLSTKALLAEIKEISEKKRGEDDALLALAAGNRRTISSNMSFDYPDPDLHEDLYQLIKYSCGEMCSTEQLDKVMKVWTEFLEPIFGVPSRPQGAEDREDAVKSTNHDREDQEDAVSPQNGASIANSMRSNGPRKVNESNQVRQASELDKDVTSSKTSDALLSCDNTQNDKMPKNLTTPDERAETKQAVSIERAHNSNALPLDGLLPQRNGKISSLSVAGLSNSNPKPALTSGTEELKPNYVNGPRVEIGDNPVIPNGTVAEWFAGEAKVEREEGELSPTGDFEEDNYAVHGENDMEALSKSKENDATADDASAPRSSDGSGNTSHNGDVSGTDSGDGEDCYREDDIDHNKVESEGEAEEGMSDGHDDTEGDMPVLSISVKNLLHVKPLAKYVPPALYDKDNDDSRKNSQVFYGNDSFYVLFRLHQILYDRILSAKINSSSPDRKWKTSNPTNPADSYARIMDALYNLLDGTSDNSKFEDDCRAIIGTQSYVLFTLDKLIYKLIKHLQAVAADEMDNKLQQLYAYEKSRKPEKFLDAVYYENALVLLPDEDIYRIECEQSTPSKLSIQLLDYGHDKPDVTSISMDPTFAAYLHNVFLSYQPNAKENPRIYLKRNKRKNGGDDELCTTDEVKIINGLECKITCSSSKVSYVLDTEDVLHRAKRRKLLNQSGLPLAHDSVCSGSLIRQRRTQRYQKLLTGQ
UniProt O48686: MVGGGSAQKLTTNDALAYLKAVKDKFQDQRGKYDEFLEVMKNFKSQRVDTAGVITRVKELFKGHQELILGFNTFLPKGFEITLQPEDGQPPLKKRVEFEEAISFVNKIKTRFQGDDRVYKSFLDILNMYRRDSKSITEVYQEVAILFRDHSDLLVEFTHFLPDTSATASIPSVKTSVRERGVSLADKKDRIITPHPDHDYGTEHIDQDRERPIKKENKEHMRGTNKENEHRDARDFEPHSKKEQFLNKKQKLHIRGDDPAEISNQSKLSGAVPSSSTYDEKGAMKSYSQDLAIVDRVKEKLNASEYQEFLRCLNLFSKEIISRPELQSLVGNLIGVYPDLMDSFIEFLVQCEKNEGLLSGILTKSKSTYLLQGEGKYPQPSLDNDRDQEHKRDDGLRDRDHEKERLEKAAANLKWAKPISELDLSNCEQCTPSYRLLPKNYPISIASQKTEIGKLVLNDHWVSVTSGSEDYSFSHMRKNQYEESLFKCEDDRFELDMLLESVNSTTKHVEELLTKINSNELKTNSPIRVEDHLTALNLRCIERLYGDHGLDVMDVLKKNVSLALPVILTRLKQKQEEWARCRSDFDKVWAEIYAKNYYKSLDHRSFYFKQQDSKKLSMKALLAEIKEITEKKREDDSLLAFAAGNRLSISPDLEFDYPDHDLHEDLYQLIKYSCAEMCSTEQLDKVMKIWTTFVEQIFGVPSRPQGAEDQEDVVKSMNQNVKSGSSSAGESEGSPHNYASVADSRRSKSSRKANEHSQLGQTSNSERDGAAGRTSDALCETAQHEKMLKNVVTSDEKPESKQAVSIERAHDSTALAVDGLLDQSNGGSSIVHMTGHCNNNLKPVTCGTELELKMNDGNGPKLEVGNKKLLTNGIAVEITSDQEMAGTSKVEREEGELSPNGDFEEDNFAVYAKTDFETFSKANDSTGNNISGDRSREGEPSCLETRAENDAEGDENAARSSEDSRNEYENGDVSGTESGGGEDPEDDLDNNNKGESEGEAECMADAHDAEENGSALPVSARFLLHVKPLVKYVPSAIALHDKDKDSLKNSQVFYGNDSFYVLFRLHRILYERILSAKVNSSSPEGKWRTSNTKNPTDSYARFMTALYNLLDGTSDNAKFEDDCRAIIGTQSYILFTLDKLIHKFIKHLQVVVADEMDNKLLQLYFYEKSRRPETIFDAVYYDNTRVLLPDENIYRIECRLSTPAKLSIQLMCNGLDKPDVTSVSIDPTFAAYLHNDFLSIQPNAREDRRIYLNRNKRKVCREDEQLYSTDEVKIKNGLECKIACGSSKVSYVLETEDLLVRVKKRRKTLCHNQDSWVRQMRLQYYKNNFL

Legend:
Assay in all cases: two-hybrid; Matchmaker GAL4 two-hybrid system 3, yeast AH109; VAL1 constructs in pGADT7 (AD), SNL constructs in pGBKT7 (BD); growth on medium lacking Trp, Leu, His and Ade, 3-5 d at 30 °C
[1] = target: SNL4 (SIN3-LIKE 4), full length, fused to the GAL4 binding domain (Arabidopsis thaliana) (UniProt O04539)
[2] = target: SNL3 (SIN3-LIKE 3), full length, fused to the GAL4 binding domain (Arabidopsis thaliana) (UniProt O48686)
[3] = target: T1, SNL6-PAH (aa 1–300), fused to the GAL4 binding domain (Arabidopsis thaliana) (UniProt Q9XIK6)
T1 sequence: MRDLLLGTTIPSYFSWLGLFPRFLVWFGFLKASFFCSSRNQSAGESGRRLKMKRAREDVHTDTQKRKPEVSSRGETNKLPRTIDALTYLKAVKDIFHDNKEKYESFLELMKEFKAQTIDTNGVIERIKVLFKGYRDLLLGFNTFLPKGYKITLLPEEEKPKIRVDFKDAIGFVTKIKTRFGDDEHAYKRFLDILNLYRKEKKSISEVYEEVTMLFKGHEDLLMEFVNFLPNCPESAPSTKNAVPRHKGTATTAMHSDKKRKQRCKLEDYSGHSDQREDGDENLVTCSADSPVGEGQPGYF

[4] = target: T2, SNL2 (SIN3-LIKE 2), full length, fused to the GAL4 binding domain (Arabidopsis thaliana) (UniProt Q9LFQ3)
T2 sequence: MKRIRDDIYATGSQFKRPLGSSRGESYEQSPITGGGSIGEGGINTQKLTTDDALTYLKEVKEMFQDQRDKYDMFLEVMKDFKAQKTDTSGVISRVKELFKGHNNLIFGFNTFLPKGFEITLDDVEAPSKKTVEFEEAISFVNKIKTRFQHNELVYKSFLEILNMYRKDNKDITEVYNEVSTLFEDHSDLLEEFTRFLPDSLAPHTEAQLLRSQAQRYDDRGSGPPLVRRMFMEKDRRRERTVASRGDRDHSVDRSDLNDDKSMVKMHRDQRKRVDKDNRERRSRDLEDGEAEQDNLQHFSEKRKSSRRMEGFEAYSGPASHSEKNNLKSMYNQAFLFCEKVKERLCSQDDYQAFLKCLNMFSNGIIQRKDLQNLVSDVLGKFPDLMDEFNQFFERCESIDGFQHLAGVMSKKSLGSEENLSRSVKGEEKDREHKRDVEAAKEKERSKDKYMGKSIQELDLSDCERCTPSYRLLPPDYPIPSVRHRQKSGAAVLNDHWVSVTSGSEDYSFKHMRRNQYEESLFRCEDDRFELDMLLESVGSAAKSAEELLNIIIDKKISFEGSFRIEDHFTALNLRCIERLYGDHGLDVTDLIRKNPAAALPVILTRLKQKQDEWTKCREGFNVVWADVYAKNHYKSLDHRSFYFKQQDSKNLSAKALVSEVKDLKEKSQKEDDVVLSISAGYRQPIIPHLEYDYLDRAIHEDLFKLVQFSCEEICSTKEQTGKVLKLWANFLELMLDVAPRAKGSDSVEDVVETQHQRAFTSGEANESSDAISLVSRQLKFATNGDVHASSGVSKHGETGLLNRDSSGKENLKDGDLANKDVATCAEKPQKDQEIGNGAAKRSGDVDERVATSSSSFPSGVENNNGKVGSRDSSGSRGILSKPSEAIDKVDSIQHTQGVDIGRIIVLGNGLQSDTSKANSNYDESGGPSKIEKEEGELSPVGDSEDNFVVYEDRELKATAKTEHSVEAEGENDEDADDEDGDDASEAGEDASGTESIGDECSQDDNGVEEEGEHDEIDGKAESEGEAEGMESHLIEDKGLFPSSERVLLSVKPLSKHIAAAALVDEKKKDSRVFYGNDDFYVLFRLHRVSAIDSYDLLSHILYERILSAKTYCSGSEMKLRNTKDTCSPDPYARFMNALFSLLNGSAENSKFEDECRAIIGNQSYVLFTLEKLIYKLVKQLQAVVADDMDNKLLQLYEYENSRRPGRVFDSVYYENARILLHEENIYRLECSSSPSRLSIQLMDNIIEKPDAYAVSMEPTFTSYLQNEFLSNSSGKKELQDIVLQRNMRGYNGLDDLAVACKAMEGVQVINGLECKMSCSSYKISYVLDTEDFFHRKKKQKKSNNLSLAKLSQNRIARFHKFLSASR

[5] = target: T3, SNL1-PAH (aa 1–450), fused to the GAL4 binding domain (Arabidopsis thaliana) (UniProt Q9SRH9)
T3 sequence: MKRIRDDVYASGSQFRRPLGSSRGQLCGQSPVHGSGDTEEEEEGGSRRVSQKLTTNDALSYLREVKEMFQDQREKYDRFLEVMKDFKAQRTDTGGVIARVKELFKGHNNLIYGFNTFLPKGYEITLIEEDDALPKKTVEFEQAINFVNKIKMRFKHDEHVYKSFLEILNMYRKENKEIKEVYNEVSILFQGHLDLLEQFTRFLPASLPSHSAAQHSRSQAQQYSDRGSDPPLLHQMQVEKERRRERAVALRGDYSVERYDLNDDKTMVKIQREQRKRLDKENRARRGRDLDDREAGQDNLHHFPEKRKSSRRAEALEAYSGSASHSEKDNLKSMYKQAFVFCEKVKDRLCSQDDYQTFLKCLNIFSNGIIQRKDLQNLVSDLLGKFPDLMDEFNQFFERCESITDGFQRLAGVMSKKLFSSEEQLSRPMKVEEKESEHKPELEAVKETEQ

Measured: binding

B1: VAL1 (VIVIPAROUS1/ABSCISIC ACID …3-LIKE1), full length, fused to the GAL4 activating domain (protein, UniProt Q8W4L5 1-790)
chain: MFEVKMGSKMCMNASCGTTSTVEWKKGWPLRSGLLADLCYRCGSAYESSLFCEQFHKDQSGWRECYLCSKRLHCGCIASKVTIELMDYGGVGCSTCACCHQLNLNTRGENPGVFSRLPMKTLADRQHVNGESGGRNEGDLFSQPLVMGGDKREEFMPHRGFGKLMSPESTTTGHRLDAAGEMHESSPLQPSLNMGLAVNPFSPSFATEAVEGMKHISPSQSNMVHCSASNILQKPSRPAISTPPVASKSAQARIGRPPVEGRGRGHLLPRYWPKYTDKEVQQISGNLNLNIVPLFEKTLSASDAGRIGRLVLPKACAEAYFPPISQSEGIPLKIQDVRGREWTFQFRYWPNNNSRMYVLEGVTPCIQSMMLQAGDTVTFSRVDPGGKLIMGSRKAANAGDMQGCGLTNGTSTEDTSSSGVTENPPSINGSSCISLIPKELNGMPENLNSETNGGRIGDDPTRVKEKKRTRTIGAKNKRLLLHSEESMELRLTWEEAQDLLRPSPSVKPTIVVIEEQEIEEYDEPPVFGKRTIVTTKPSGEQERWATCDDCSKWRRLPVDALLSFKWTCIDNVWDVSRCSCSAPEESLKELENVLKVGREHKKRRTGESQAAKSQQEPCGLDALASAAVLGDTIGEPEVATTTRHPRHRAGCSCIVCIQPPSGKGRHKPTCGCTVCSTVKRRFKTLMMRRKKKQLERDVTAAEDKKKKDMELAESDKSKEEKEVNTARIDLNSDPYNKEDVEAVAVEKEESRKRAIGQCSGVVAQDASDVLGVTELEGEGKNVREEPRVSS
binds: all assays above

B2: VAL1-CW (aa 458–673), fused to the GAL4 activating domain (domain or fragment, UniProt Q8W4L5 458-673)
chain: DDPTRVKEKKRTRTIGAKNKRLLLHSEESMELRLTWEEAQDLLRPSPSVKPTIVVIEEQEIEEYDEPPVFGKRTIVTTKPSGEQERWATCDDCSKWRRLPVDALLSFKWTCIDNVWDVSRCSCSAPEESLKELENVLKVGREHKKRRTGESQAAKSQQEPCGLDALASAAVLGDTIGEPEVATTTRHPRHRAGCSCIVCIQPPSGKGRHKPTCGCT
binds: all assays above
